Data from publication PMC10290989.
No constants are given. Whether binding was seen depends on the method and setting. For part of these data: In cells and extracts the contact can be indirect. Some binding calls cover weakened binding; strength is not graded here. One block for each substance: values may come before it.

The chains behind the UniProt entries cited, without tags or fusion partners. Where a name states a change or a piece, a line headed by the entry shows the natural chain unless it says otherwise. Residues count along the entry.
UniProt Q9NZQ7: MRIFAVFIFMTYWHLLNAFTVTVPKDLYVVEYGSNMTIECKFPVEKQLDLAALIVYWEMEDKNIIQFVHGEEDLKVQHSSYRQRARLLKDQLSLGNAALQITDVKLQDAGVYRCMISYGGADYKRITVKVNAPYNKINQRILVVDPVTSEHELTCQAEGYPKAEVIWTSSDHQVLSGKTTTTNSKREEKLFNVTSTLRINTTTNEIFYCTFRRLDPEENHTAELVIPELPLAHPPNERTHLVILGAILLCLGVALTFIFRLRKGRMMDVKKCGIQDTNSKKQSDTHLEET
PD-L1, endogenous (human (endogenous in G.C. cells)): residues 19-290 of Q9NZQ7
UniProt Q13263: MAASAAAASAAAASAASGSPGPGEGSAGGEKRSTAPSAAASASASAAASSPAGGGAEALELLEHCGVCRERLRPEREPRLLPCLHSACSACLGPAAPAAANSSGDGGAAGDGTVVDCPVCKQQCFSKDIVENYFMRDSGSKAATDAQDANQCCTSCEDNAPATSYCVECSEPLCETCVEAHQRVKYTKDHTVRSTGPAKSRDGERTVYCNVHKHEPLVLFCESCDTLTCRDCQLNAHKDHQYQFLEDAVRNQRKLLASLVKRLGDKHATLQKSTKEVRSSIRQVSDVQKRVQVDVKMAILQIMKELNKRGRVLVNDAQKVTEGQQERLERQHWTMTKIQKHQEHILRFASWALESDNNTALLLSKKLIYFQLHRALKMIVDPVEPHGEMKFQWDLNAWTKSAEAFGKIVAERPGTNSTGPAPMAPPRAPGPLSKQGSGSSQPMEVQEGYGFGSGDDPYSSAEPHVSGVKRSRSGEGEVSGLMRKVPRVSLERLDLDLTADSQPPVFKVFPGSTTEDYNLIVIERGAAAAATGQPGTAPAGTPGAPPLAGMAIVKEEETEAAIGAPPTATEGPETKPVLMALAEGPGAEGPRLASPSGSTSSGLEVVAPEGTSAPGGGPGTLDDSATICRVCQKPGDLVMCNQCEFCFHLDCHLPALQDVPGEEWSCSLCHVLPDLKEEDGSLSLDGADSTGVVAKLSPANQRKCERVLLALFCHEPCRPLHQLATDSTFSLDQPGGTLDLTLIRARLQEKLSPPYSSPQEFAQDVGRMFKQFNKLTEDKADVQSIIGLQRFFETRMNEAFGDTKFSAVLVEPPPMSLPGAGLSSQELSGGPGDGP

Tests used:
[1] = biological target: PD-L1 full-length, expressed from a construct (UniProt Q9NZQ7); assay: co-IP; whole G.C. cell lysates in I.P. buffer (NP-40, 50 mM Tris-HCl pH 7.4, 50 mM EDTA, 150 mM NaCl); antibody 2 h at 4 °C, protein A/G agarose beads overnight at 4 °C; five washes; immunoblot; ectopically expressed or endogenous proteins
[2] = biological target: PD-L1, endogenous (human (endogenous in G.C. cells)) (UniProt Q9NZQ7); assay: as above
[3] = biological target: Myc-PD-L1, produced by in vitro transcription and translation (UniProt Q9NZQ7); assay: binding of in vitro translated proteins, read by western blot; TRIM28 and Myc-PD-L1 produced with the in vitro transcription and translation system; how the complex was isolated is not told

binding [1]: binds
Substance: TRIM28 full-length, ectopically expressed (from UniProt Q13263 1-835)

binding [2]: binds
Substance: TRIM28, endogenous (from UniProt Q13263 1-835)

binding [3]: binds
Substance: TRIM28, produced by in vitro transcription and translation (from UniProt Q13263 1-835)
